Source: article PMC5840268
These are yes or no findings as the source states them, for the method shown. Binding seen in cells or lysates may run through a third protein. Some binding calls cover weakened binding; strength is not graded here. For some assays here: Sequences can lack the tags named with a protein.

The chains behind the UniProt entries cited, without tags or fusion partners.
UniProt Q92547: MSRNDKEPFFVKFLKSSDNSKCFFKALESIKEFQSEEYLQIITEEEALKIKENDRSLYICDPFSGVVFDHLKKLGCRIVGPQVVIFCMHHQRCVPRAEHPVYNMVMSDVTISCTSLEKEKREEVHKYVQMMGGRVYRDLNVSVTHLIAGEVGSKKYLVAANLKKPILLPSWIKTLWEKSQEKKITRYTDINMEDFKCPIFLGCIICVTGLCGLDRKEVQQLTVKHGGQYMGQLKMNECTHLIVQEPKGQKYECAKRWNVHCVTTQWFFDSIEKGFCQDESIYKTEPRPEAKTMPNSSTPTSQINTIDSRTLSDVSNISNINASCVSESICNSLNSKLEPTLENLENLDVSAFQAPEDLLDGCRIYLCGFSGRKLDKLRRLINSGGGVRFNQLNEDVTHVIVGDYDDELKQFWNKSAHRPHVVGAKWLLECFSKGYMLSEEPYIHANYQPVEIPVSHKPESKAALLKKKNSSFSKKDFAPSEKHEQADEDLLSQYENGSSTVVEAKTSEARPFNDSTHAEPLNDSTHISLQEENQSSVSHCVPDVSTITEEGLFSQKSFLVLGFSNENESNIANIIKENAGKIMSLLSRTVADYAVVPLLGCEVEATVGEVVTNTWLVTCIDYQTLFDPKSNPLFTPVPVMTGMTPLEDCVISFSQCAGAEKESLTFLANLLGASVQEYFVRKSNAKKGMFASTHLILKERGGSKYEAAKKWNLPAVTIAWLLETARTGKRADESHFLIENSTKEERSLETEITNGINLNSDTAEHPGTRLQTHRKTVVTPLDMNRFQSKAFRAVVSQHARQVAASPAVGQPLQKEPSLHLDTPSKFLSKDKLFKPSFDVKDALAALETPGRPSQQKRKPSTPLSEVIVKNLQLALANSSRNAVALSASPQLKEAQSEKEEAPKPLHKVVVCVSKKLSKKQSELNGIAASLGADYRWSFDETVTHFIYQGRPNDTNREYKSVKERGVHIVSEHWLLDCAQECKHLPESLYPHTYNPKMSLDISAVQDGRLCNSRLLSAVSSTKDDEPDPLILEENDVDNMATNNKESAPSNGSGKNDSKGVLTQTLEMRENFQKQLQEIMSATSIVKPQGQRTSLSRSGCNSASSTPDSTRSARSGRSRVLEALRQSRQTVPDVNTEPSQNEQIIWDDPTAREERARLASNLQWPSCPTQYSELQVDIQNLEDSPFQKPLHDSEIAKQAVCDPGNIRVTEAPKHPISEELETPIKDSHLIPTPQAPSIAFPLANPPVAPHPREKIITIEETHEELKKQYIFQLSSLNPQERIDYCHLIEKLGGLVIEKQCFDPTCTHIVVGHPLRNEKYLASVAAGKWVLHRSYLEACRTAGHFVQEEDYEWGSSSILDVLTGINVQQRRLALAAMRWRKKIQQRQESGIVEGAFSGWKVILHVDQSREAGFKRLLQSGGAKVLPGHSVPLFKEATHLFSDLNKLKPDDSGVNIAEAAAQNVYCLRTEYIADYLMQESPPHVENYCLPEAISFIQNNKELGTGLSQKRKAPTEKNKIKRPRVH
UniProt P38398: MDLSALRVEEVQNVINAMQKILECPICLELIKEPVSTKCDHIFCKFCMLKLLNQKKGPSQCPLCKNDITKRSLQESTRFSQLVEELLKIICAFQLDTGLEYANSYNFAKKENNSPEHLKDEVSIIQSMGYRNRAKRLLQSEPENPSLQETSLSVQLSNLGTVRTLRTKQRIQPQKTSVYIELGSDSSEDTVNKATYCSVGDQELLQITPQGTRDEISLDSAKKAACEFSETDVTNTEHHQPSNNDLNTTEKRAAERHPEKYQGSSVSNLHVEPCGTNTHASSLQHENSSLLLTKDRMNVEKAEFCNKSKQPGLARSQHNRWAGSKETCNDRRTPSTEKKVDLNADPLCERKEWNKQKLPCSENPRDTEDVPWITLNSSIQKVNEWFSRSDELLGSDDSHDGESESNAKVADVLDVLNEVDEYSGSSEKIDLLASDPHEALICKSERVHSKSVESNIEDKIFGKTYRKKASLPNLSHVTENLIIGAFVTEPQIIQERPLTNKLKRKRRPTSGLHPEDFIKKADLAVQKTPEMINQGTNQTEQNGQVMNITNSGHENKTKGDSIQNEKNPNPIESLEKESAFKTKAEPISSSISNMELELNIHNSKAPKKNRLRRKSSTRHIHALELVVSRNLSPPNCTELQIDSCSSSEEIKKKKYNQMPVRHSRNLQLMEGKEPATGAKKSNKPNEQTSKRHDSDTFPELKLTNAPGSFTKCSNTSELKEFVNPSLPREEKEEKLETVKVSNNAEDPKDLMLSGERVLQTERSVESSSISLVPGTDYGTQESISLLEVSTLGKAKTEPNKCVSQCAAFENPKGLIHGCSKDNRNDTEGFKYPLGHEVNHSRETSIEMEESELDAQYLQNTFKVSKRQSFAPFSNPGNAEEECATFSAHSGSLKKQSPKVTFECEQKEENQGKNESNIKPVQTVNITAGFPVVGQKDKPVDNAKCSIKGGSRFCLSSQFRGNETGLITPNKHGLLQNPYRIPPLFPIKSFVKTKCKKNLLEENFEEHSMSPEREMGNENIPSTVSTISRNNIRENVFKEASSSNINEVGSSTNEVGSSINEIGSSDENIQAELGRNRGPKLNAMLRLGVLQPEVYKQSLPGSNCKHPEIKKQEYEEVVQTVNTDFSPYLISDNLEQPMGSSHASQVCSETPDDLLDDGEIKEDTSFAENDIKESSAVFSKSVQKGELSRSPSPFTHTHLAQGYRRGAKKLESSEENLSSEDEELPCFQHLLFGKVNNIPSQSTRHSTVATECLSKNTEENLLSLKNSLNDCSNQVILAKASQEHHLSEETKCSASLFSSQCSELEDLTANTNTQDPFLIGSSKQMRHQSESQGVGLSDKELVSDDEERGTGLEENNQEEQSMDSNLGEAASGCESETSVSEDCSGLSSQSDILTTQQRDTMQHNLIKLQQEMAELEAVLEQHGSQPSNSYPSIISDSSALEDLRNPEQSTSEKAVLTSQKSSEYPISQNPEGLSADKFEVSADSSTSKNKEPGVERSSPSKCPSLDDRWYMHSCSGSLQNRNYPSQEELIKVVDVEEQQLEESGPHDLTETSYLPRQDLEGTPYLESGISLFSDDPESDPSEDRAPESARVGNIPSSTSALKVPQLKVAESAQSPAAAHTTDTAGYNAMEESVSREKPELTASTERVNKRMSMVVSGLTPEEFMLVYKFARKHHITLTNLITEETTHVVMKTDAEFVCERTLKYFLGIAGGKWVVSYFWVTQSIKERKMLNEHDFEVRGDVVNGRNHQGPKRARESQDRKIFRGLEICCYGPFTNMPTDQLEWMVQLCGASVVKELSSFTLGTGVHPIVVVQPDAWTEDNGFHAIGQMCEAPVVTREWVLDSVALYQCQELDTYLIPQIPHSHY

B1: tagged exogenous EDC4 expressed in HeLa cells (protein, UniProt Q6P2E9-1 1-1401)
chain: MASCASIDIEDATQHLRDILKLDRPAGGPSAESPRPSSAYNGDLNGLLVPDPLCSGDSTSANKTGLRTMPPINLQEKQVICLSGDDSSTCIGILAKEVEIVASSDSSISSKARGSNKVKIQPVAKYDWEQKYYYGNLIAVSNSFLAYAIRAANNGSAMVRVISVSTSERTLLKGFTGSVADLAFAHLNSPQLACLDEAGNLFVWRLALVNGKIQEEILVHIRQPEGTPLNHFRRIIWCPFIPEESEDCCEESSPTVALLHEDRAEVWDLDMLRSSHSTWPVDVSQIKQGFIVVKGHSTCLSEGALSPDGTVLATASHDGYVKFWQIYIEGQDEPRCLHEWKPHDGRPLSCLLFCDNHKKQDPDVPFWRFLITGADQNRELKMWCTVSWTCLQTIRFSPDIFSSVSVPPSLKVCLDLSAEYLILSDVQRKVLYVMELLQNQEEGHACFSSISEFLLTHPVLSFGIQVVSRCRLRHTEVLPAEEENDSLGADGTHGAGAMESAAGVLIKLFCVHTKALQDVQIRFQPQLNPDVVAPLPTHTAHEDFTFGESRPELGSEGLGSAAHGSQPDLRRIVELPAPADFLSLSSETKPKLMTPDAFMTPSASLQQITASPSSSSSGSSSSSSSSSSSLTAVSAMSSTSAVDPSLTRPPEELTLSPKLQLDGSLTMSSSGSLQASPRGLLPGLLPAPADKLTPKGPGQVPTATSALSLELQEVEPLGLPQASPSRTRSPDVISSASTALSQDIPEIASEALSRGFGSSAPEGLEPDSMASAASALHLLSPRPRPGPELGPQLGLDGGPGDGDRHNTPSLLEAALTQEASTPDSQVWPTAPDITRETCSTLAESPRNGLQEKHKSLAFHRPPYHLLQQRDSQDASAEQSDHDDEVASLASASGGFGTKVPAPRLPAKDWKTKGSPRTSPKLKRKSKKDDGDAAMGSRLTEHQVAEPPEDWPALIWQQQRELAELRHSQEELLQRLCTQLEGLQSTVTGHVERALETRHEQEQRRLERALAEGQQRGGQLQEQLTQQLSQALSSAVAGRLERSIRDEIKKTVPPCVSRSLEPMAGQLSNSVATKLTAVEGSMKENISKLLKSKNLTDAIARAAADTLQGPMQAAYREAFQSVVLPAFEKSCQAMFQQINDSFRLGTQEYLQQLESHMKSRKAREQEAREPVLAQLRGLVSTLQSATEQMAATVAGSVRAEVQHQLHVAVGSLQESILAQVQRIVKGEVSVALKEQQAAVTSSIMQAMRSAAGTPVPSAHLDCQAQQAHILQLLQQGHLNQAFQQALTAADLNLVLYVCETVDPAQVFGQPPCPLSQPVLLSLIQQLASDLGTRTDLKLSYLEEAVMHLDHSDPITRDHMGSVMAQVRQKLFQFLQAEPHNSLGKAARRLSLMLHGLVTPSLP
B2: EDC4, endogenous in HeLa cells (protein, UniProt Q6P2E9-1 1-1401)
chain: B1 chain

Legend:
[1] = target: tagged exogenous TOPBP1 expressed in HeLa cells (UniProt Q92547); experiment: co-IP; HeLa cells expressing both tagged EDC4 and tagged TOPBP1; one immunoprecipitated, immunoblotting with indicated antibodies
[2] = target: BRCA1, endogenous in HeLa cells (human (endogenous in HeLa)) (UniProt P38398); experiment: co-IP; endogenous proteins from HeLa cells; lysis in NTEN buffer (NP-40 0.5%, Tris 20 mM pH 7.4, NaCl 150 mM, EDTA 1 mM, benzonase); specific antibody and Protein G magnetic beads overnight at 4 °C; western blot

Binder	binding [1]	binding [2]
B1	binds	
B2		binds
